HELM strings list residues between dots; [ac] is acetyl, [am] amide, other brackets name non-standard units.
Experiment: general procedure: Boc solid-phase peptide synthesis; BHA resin (0.67 meg/g); BOC-(BZLCl2)-Tyr resin ester (0.40 meg/g); DCC/HOBt
Conditions: whole synthesis

| Substance | crude mass | isolated mass | isolated yield (overall, scale of the general procedure 5.0 g (3.35 mmol) of resin) | crude HPLC purity (HPLC, scale of the general procedure 5.0 g (3.35 mmol) of resin) |
| --- | --- | --- | --- | --- |
| PEPTIDE1{[ac].R.P.V.A.[am]}$$$$V2.0 | 240 mg | 167 mg | 50% |  |
| PEPTIDE1{[ac].R.P.D.V.[am]}$$$$V2.0 |  |  |  | 98% |

From patent US5298490A (Immunobiology Research Institute, Inc., priority 1990, dated 1994)
